According to patent US20080108565A1:
No constants are given. Whether binding was seen depends on the method and setting. Some binding calls cover weakened binding; strength is not graded here.

Protein sequences, listed by entry. Tags and fused reporters are not part of them. Lines headed by an entry give the natural chain unless they say otherwise; changes in a name come on top. Residues count along the entry.
UniProt P14210, residues 32-728: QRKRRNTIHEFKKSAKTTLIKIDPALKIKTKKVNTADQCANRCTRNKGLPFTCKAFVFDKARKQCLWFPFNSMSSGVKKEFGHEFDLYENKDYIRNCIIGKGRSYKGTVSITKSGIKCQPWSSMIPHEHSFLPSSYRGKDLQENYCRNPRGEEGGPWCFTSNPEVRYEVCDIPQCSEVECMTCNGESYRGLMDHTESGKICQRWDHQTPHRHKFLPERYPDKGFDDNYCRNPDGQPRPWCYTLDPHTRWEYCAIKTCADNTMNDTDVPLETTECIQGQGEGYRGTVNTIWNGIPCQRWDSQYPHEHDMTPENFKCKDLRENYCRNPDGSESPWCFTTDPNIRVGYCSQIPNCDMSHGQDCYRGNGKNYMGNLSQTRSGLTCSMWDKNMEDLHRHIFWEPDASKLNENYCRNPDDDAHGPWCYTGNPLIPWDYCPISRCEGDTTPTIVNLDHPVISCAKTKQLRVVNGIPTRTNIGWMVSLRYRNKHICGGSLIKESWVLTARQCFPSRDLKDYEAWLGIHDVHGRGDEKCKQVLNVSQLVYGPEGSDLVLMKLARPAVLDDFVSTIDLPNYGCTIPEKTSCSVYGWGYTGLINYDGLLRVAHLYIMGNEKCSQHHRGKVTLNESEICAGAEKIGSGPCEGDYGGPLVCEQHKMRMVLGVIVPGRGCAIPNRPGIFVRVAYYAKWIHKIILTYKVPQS
UniProt Q08048, residues 33-728: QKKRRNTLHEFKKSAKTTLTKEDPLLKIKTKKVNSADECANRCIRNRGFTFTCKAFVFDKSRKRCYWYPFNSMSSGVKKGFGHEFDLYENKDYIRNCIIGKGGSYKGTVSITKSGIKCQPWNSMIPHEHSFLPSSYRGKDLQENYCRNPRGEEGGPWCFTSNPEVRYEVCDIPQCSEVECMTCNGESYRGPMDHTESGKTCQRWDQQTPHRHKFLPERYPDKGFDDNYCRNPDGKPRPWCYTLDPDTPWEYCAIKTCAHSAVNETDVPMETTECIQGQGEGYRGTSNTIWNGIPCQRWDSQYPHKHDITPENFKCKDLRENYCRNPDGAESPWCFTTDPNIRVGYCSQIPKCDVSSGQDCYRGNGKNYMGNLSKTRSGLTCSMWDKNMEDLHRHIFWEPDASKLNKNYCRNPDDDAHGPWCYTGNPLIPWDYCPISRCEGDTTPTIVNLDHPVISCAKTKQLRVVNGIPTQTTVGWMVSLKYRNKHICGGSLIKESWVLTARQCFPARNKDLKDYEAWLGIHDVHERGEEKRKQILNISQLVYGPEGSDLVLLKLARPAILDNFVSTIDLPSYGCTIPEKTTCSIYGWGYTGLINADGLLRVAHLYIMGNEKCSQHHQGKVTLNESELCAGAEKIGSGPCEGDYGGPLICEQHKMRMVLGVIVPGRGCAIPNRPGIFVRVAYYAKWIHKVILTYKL

Tests used:
[1] = target: reduced recombinant hHGF (human) (UniProt P14210); test: immunoblot, reduced rhHGF, antibody 5 µg/mL
[2] = target: reduced recombinant hHGF (human) (UniProt P14210); test: immunoblot, reduced rhHGF
[3] = target: recombinant human HGF of Example 3 (column 'human HGF' of Table 3) (human) (UniProt P14210); test: SPR, immobilized antibody, yes/no
[4] = target: recombinant human HGF of Example 3 (column 'human HGF' of Table 3) (human) (UniProt P14210); test: SPR, immobilized antibody
[5] = target: mouse-human-mouse chimeric HGF protein containing the human V495-L585 HGF sequence (mouse-human-mouse chimera) (UniProt Q08048); test: SPR, immobilized antibody, yes/no
[6] = target: recombinant mouse HGF (R&D Systems) (mouse) (UniProt Q08048); test: SPR, immobilized antibody, yes/no
[7] = target: mouse-human-mouse chimeric HGF protein containing the human V495-L585 HGF sequence (mouse-human-mouse chimera) (UniProt Q08048); test: SPR, immobilized antibody
[8] = target: recombinant mouse HGF (R&D Systems) (mouse) (UniProt Q08048); test: SPR, immobilized antibody

Measured: binding

B1: anti-hHGF monoclonal antibody 3B6 (antibody, mouse IgG1, kappa, V domains shown)
VH: QVQLQQSGAELVRPGSSVKISCKASGYVFSSYWMNWVKQRPGQGLEWIGQIYPGDGDSNYNGNFKGKATLTADKSSSTAYMQLSSLTSEDSAVYFCASQLGLRENYFDYWGQGTTLTVSS
VL: DIKMTQSPSSMYASLGERVTITCKASQDIKSYLSWFQQKPGKSPKTLIYRVNRLVDGVPSRFSGSGSGQDSSLTITSLENEDMGIYYCLQYDEFPFTFGGGTKLEIKR
binds: [1] | [2] | [3] | [4]

B2: anti-hHGF monoclonal antibody 1F3 (antibody, mouse IgG1, kappa, V domains shown)
VH: EVQLVESGGGLVQSGGSLKLSCAASGFTFSNYFMSWVRQTPEKRLEWVAYISSGGGSTYYPDSVKGRFTISRDNAKNTLYLQMSSLKSEDTAMYYCVRQGDGYYGDYAMDYWGQGTSVTVSS
VL: DIQMTQSPASLSVSVGETVTITCRASENIYSNLAWYQQKQGKSPQLLVYDATHLPDGVPSRFSGSGSGTQFSLKINSLQSEDFGSYYCQHFWGTPYTFGGGTRLEIKR
binds: all assays above

B3: HE2B8-1 (antibody, human IgG1, kappa, V domains shown)
VH: QVQLVQPGAEVVKPGTSVKLSCKASGYTFTTYWMHWVNQAPGQGLEWIGEINPTNGHTNYNEKFKGKATLTVDKSTSTAYMELSSLRSEDTAVYYCARNYVGSIFDYWGQGTLLTVSS
VL: DIVMTQSPDSMAMSVGERVTLNCKASENVVSYVSWYQQKPGQSPKLLIYGASNRNTGVPDRFSGSGSATDFTLTISSVQAEDVADYHCGQSYNYPYTFGQGTKLEIKR
binds: [5] | [7]

B4: HE2B8-2 (antibody, human IgG1, kappa, V domains shown)
VH: QVQLVQPGAEVVKPGTSVKLSCKASGYTFTTYWMHWVNQAPGQGLEWIGEINPTNGHTNYNEKFKGKATLTVDKSTSTAYMELSSLRSEDTAVYYCARNYVGSIFDYWGQGTLLTVSS
VL: DIVMTQSPDSLAMSLGERVTLNCKASENVVSYVSWYQQKPGQSPKLLIYGASNRESGVPDRFSGSGSATDFTLTISSVQAEDVADYHCGQSYNYPYTFGQGTKLEIKR
binds: [5] | [7]

B5: HE2B8-3 (antibody, human IgG1, kappa, V domains shown)
VH: QVQLVQPGAEVKKPGTSVKLSCKASGYTFTTYWMHWVRQAPGQGLEWIGEINPTNGHTNYNQKFQGRATLTVDKSTSTAYMELSSLRSEDTAVYYCARNYVGSIFDYWGQGTLLTVSS
VL: DIVMTQSPDSMAMSVGERVTLNCKASENVVSYVSWYQQKPGQSPKLLIYGASNRNTGVPDRFSGSGSATDFTLTISSVQAEDVADYHCGQSYNYPYTFGQGTKLEIKR
binds: [5] | [7]

B6: HE2B8-4 (antibody, human IgG1, kappa, V domains shown)
VH: QVQLVQPGAEVKKPGTSVKLSCKASGYTFTTYWMHWVRQAPGQGLEWIGEINPTNGHTNYNQKFQGRATLTVDKSTSTAYMELSSLRSEDTAVYYCARNYVGSIFDYWGQGTLLTVSS
VL: DIVMTQSPDSLAMSLGERVTLNCKASENVVSYVSWYQQKPGQSPKLLIYGASNRESGVPDRFSGSGSATDFTLTISSVQAEDVADYHCGQSYNYPYTFGQGTKLEIKR
binds: [5] | [7]

B7: anti-hHGF monoclonal antibody 1A3 (antibody, mouse IgG1, kappa, V domains shown)
VH: EVQLVESGGGLVQPGGSLKLSCAASEFTFSNYYMSWVRQTPEKRLQWVAYISPGGGSSYYPASVKGRFTISRDNAKNTLYLQMSSLKSEDTAMYYCARQGDGYYGDYAMDYWGQGTSVTVSS
VL: DIQMTQSPASLSVSVGETVTITCRASENIYSNLAWYQQKQGKSPQLLVYAATNLADGVPSRFSGSGSGTQFSLKINSLQSEDFGTYYCQHFWGTPYTFGGGTKLEIKR
binds: [1] | [2] | [3] | [4]

B8: anti-hHGF monoclonal antibody 2F8 (antibody, mouse IgG1, kappa, V domains shown)
VH: QVQLKQSGAELVRPGTSVKMSCKASGYTFTTYYIHWVNQRPGQGLEWIGKIGPGSGSTYYNEMFKDKATLTVDTSSSTAYMQLSSLTSDDSAVYFCARRGLGRGFDYWGQGTTLTVSS
VL: DIVLTQSPASLAVSLGQRATISCKASQSVDYDGNSYINWYQQKPGQPPKVLIYVASNLESGIPARFSGSGSGTDFTLNIHPVEEEDAATYYCQQSIEDPPTFGAGTKLELKR
not listed: [5] | [7]
binds: all other assays above

B9: anti-hHGF monoclonal antibody 1D3 (antibody, mouse IgG1, kappa, V domains shown)
VH: EVQLVESGGGLVQPGGSLKLSCAASGFTFSDYYMSWVRQTPEKRLEWVAYISSGGGSTYYPDSVKGRFTISRDNAKNTLYLQMSSLKSEDTAIYYCVRQGDGYYGDYAMDYWGQGTSVIVSS
VL: DIQMTQSPASLSVSVGETVTITCRTSENIYSNLAWYQQKQGKSPQLLIYAATNLADGVPSRFSGSGSGTQFSLRINSLQSEDFGRYYCQHFWGTPYTFGGGTKLEIKR
not listed: [6] | [8]
binds: all other assays above
